Drawing on publication PMC7862700, this text covers binding signal for 40 sequences.

This is one part of the list. The exact form of the protein is not confirmed.

The target in the test is T1, ETS1 (UniProt P14921).
T1 sequence: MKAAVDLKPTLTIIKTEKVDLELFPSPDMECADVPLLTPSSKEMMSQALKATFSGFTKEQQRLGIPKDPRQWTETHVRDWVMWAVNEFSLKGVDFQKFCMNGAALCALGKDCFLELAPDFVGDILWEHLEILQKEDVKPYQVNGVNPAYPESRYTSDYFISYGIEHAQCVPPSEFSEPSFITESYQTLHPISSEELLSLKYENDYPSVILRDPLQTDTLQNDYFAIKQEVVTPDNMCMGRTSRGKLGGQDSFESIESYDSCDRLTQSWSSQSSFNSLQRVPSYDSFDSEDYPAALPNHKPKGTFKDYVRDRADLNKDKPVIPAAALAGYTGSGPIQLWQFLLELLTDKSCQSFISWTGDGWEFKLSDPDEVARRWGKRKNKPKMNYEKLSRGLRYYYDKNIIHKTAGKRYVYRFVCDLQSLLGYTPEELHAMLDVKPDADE
Put plainly: DAPPL (digital affinity profiling via proximity ligation, sequencing). The note with it: 10 mM Tris-HCl pH 7.5, 50 mM NaCl, 1 mM DTT, 4% glycerol, room temperature, 30 min; GST-TFs on glutathione beads, 16-mer random dsDNA library, 0.1% …; high values mean tight binding; double strand, one strand shown; scale: fold enrichment (6-mer frequency, TF over GST control).
Take TAAGTT: the binding signal amounted to 1.3.
Consider CATGCA, for which the binding signal amounted to 1.01.
In the case of TTTGTC, the binding signal was determined as 1.18.
The sequence TTAGCA displayed a binding signal of 1.19.
As to TCCCCG, the binding signal amounted to 1.19.
In turn, GGTTAT registered a binding signal of 1.05.
With ATCTGG the figure was 1.19; with GTATAA, 1.05.
CAAACT displayed a binding signal of 1.19.
With CGTAAA the figure was 1.01; with AACCCG, 1.47; with TTTAAC, 1.18.
ATTACC displayed a binding signal of 1.26.
Sequence ACAATG came in with a binding signal of 1.15.
For TGGTCC the value was 1.18; for CCCCGA, 1.03.
The sequence GTTTTG returned a binding signal of 1.18.
Consider CCGCTT, for which the binding signal is 1.75.
AATTAT registered a binding signal of 1.22.
TCTATA: the binding signal was determined as 1.15.
TACCTG had a binding signal of 1.16.
As to TATCTG, the binding signal stood at 1.22.
For TAGTGG the value was 1.14; for AGCCAC, 1.04; for ATAAGA, 1.01.
With CGATGC, the binding signal came out at 1.13.
Regarding AACTCA, the binding signal is 1.25.
As to TGTTGA, the binding signal came out at 1.02.
ACGTAT returned a binding signal of 1.17.
The sequence TCACGT yielded a binding signal of 1.26.
Regarding CACTTT, the binding signal stood at 1.23.
GAAGTC gave a binding signal of 1.06.
With GCGGAA, the binding signal was 1.33.
For the sequence CTGGCA, the binding signal was 1.33.
With TGTCAT, the binding signal came out at 1.1.
With AGAATA the figure was 1.02; with CCGTCT, 1.34; with GAAGCC, 1.04.
Take CGGCCT: the binding signal turned out to be 1.1.
For CTCGCT the value was 1.65.
